Measured values reported in patent USRE43135E1, “Method of improving dough and bread quality” (Danisco A/S, priority 2001, dated 2012).

Experiments:
[1] = Mini baking test (minibread): bread volume and crumb
Experimental: The following ingredients were added to a 50 g Brabrender mixing bowl and kneaded for 5 minutes at 30° C.: flour 50 g, dry yeast 1.0 g, sugar 0.8 g, salt 0.8 g, 70 ppm ascorbic acid and water (to a dough consistency of 400 Brabender units). Resting time was 10 min. at 34° C. The dough was scaled 15 g per dough. Then moulded on a special device where the dough was rolled between a wooden plate and a Plexiglas frame. The doughs were proofed in tins for 45 min. at 34° C., and baked in a Voss household oven for 8 min. 225° C.
After baking the breads were cooled to ambient temperature and after 20 min. The breads were scaled and the volume was determined by rape-seed displacement method.
The breads were also cut and crumb and crust evaluated.

[2] = Baking test, hard crust rolls (Danish rolls); conditions: 1.5 mg of LAH, compared with bread with no enzyme, initial results
Experimental: Flour, Danish reform 1500 g, Compressed Yeast 90 g, sugar 24 g, salt 24 grams, water 400 Brabender units+2% were kneaded in a Hobart™ mixer with hook for 2 minutes low speed and 9 minutes high speed. The dough temperature was 26° C. The dough was scaled 1350 gram. Resting 10 min. at 30° C. and moulded on a Fortuna moulder. The dough was proofed 45 min. at 34° C. The dough was baked in a Bago-oven 18 min. 220° C. and steamed for 12 sec.
After cooling the rolls were scaled and the volume of the rolls was measured by the rape seed displacement method.
The dough quality parameters were also evaluated.
LAH isolated from cowpea was evaluated in baking tests as follows. The LAH was evaluated in hard crust rolls.
LAH was tested in a dosage of 0, 0.25, 0.5, 1 or 1.5 units enzyme/kg flour).

[3] = Baking test, Danish toast bread: loaf volume, firmness, crumb; conditions: initial results
Experimental: Flour, Danish reform 2000 g, Dry yeast 30 g, sugar 30 g, salt 30 gram and, water 400 Brabender units+3% was kneaded in a Hobart™ Mixer with hook for 2 min. at low speed and 10 min. at high speed. Dough temperature after mixing was 25° C. Resting time was 10 min. at 30° C. The dough was scaled 750 gram per dough. Then rested again for 5 min. at 33° C. and 85% RH. The dough was moulded on a Glimik moulder. The doughs were proofed in tins for 50 min. at 33° C., and baked in a Wachtel oven 40 min. 220° C. and steam injection for 16 sec.
After cooling the bread was scaled, and the volume of the bread was measured by the rape seed displacement method.
The crumb was also evaluated subjectively on a scale 1 to 10, where 1=course inhomogeneous and 10=nice homogeneous.
Three breads baked in tins with lids were stored at 20° C. and used for firmness measurements.
Firmness of bread was measured on a Instron™ M model 4301 connected to a computer.
Conditions for measurement of bread firmness: • Load Cell Max. […]
LAH was tested in bread according to the Danish toast bread procedure using Danish reform flour. […] After baking, the loaves were cooled and the loaf volume measured. Bread baked in tin with a lid were stored at ambient temperature and the crumb softness were evaluated after 1, 3 and 7 days storage at 22° C. wrapped in double plastic bags.

Cowpea LAH: lipolytic acyl hydrolase (E.C. 3.1.1.26) isolated from cowpea (Vigna unguiculata) leaves; hydrolyses glycolipid and phospholipid, not triglyceride
Specific Bread volume ([1]; Cowpea LAH 0.1195 Units/kg): 3 mL/g
Specific Bread volume ([1]; Cowpea LAH 0.239 Units/kg): 3.2 mL/g
Specific Bread volume ([1]; Cowpea LAH 0.478 Units/kg): 3.15 mL/g
Specific Bread volume ([1]; Cowpea LAH 0.956 Units/kg): 3.15 mL/g
Sp. Bread vol. ([1]; Test no 3, Cowpea LAH 0.357 Units/kg flour, no DGDG): 3.22 mL/g
Sp. Bread volume ([1]; Test no 3, Cowpea LAH 0.71 Units/kg flour + DGDG 55% pure 0.4 %): 4.36 mL/g
Sp. Bread vol. ([1]; Test no 4, Cowpea LAH 0.357 Units/kg flour + DGDG 55% pure 0.2 %): 3.69 mL/g
Sp. Bread volume ([1]; Test no 4, Cowpea LAH 0.71 Units/kg flour, no DGDG): 3.14 mL/g
Sp. Bread vol. ([1]; Test no 10, Cowpea LAH 1.07 Units/kg flour, no DGDG): 3.11 mL/g
Sp. Bread vol. ([1]; Test no 11, Cowpea LAH 1.07 Units/kg flour + DGDG 55% pure 0.1 %): 3.3 mL/g
Sp. Bread vol. ([1]; Test no 12, Cowpea LAH 1.07 Units/kg flour + DGDG 55% pure 0.2 %): 3.73 mL/g
Sp. Bread vol. ([1]; Test no 13, Cowpea LAH 1.07 Units/kg flour + DGDG 55% pure 0.4 %): 4.13 mL/g
Sp. Bread vol. ([1]; Test no 15, Cowpea LAH 1.07 Units/kg flour + Soy oil 2 %): 3.3 mL/g
Sp. Bread vol. ([1]; Test no 16, Cowpea LAH 2.14 Units/kg flour + Soy oil 2 %): 3.12 mL/g
Bread volume ([1]; Test no. 2, Cowpea LAH 0.05 % in dough): 3.11 mL/g
Bread volume ([1]; Test no. 3, Cowpea LAH 0.15 % in dough): 3.3 mL/g
increase of loaf volume [2]: more than 10%
loaf volume ([3]; 1-1.5 units of LAH): increases the loaf volume
firmness and elasticity of crumb ([3]; after 7 days storage, compared with control without enzyme): significantly softer crumb
